Results: publication PMC12523365
Results are given in words; binding and its absence hold for the method and conditions named. In cells and extracts the contact can be indirect. Here binding means that the protein was enriched with, or labelled near, the bait; the list need not be complete. Where a sequence is shown, tags or fusion partners need not be part of it.

Amino acid sequences for entries named in this document (tags omitted).
UniProt Q9Y6R4: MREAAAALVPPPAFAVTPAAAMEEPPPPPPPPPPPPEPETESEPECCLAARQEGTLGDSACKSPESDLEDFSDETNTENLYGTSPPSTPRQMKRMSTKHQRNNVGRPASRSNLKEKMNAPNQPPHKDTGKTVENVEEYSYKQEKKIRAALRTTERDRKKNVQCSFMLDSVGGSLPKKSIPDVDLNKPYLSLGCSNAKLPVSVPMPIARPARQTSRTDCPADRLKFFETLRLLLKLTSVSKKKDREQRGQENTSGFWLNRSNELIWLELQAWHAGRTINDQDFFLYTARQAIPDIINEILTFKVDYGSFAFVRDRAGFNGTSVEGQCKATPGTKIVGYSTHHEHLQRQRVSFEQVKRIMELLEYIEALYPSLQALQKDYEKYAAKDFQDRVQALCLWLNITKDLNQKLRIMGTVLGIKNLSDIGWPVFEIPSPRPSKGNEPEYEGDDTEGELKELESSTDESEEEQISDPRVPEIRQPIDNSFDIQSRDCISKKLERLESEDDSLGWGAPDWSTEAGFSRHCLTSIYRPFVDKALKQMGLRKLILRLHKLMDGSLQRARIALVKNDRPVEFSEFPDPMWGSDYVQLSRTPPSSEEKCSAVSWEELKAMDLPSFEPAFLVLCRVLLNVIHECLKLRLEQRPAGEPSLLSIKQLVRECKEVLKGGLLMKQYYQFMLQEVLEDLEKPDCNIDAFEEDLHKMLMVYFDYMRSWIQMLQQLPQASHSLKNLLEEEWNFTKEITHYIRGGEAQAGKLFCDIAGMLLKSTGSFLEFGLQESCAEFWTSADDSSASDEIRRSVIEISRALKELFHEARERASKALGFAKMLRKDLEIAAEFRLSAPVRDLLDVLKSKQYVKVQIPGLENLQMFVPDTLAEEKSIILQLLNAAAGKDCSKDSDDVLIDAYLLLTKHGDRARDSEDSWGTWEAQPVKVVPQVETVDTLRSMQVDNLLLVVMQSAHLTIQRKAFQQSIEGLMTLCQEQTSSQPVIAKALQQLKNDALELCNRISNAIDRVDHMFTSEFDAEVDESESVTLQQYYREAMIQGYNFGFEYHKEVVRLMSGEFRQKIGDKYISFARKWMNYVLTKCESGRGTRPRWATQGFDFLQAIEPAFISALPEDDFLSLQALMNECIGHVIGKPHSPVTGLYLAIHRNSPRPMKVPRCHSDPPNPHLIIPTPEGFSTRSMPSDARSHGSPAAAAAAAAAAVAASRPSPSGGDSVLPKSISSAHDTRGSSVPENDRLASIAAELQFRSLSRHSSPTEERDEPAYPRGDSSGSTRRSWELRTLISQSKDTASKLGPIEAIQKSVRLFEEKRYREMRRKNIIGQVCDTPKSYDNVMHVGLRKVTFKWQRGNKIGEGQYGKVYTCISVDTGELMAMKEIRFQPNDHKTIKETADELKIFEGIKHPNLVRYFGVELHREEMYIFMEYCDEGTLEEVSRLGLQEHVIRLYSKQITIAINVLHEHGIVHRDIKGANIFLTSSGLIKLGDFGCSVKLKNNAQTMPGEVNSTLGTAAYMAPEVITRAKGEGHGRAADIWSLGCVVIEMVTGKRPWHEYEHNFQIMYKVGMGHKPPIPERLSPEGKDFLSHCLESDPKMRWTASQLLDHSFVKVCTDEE

T1: Growth arrest and DNA damage protein 45 beta (Gadd45B), 3xFLAG-tagged (human) (UniProt O75293)
T1 sequence: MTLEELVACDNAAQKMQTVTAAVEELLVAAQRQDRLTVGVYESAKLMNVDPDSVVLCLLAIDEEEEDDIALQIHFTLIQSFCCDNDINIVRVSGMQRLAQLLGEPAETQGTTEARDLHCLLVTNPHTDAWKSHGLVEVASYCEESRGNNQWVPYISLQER

B1: MYC-binding protein (MYCBP) (protein, UniProt Q99417 1-103)
chain: MAHYKAADSKREQFRRYLEKSGVLDTLTKVLVALYEEPEKPNSALDFLKHHLGAATPENPEIELLRLELAEMKEKYEAIVEENKKLKAKLAQYEPPQEEKRAE

Tests used:
[1] = target: T1, Growth arrest and DNA damage protein 45 beta (Gadd45B), 3xFLAG-tagged (human); test: affinity purification with mass spectrometry; anti-Flag agarose immunoprecipitation from TPC-1 and Bcpap cells stably overexpressing Flag-Gadd45B; eluates on SDS-PAGE, silver staining, bands excised, in-gel trypsin digestion, nano-LC-MS/MS
[2] = target: T1, Growth arrest and DNA damage protein 45 beta (Gadd45B), 3xFLAG-tagged (human); test: as above; remark: listed apart in the source
[3] = target: T1, Growth arrest and DNA damage protein 45 beta (Gadd45B), 3xFLAG-tagged (human); test: affinity purification with mass spectrometry; IP-MS of Gadd45B-overexpressing Bcpap and K1 cells; primary antibodies and Protein A/G agarose beads; TMT 10-plex labelling

Row | Molecule | binding [1] | binding [2] | binding [3]
1 | MAP3K4, His-tagged (from UniProt Q9Y6R4 1-1608) | binds | – | –
2 | B1 | – | binds | binds
